Structures can show the parent of a compound that is named as a salt. The list shows a part of the results. Single values are uncertain, as repeats are few or missing.
Test system: M238P (parental melanoma line)
Test: reduction in cell viability relative to untreated/vehicle; higher = more growth inhibition
Conditions: 200 nM; 72 h

Row | SMILES | reduction in cell viability [%]
1 | COc1cc(/C=C/C(=O)O)ccc1O [Fumalic acid] | < 0
2 | CS(=O)(=O)OCCCCOS(C)(=O)=O [Busulfan] | < 0
3 | NCCS(=O)(=O)O [l-Taurine] | < 0
4 | CCN(CC)CCCCNc1nc2cc(Cl)c(Cl)cc2nc1-c1ccc(-c2cccs2)s1 | < 0
5 | CCc1cccc(CC)c1NC(=O)N1Cc2[nH]nc(NC(=O)c3ccc(N4CCN(C)CC4)cc3)c2C1 | 11.6
6 | N#CC1(c2ccc(NC(=O)c3cccnc3NCc3ccncc3)cc2)CCCC1 [Apatinib] | < 0
7 | O=C(CCCN1CCC(O)(c2ccc(Cl)cc2)CC1)c1ccc(F)cc1 [Haloperidol] | < 0
8 | Cc1ccc(NC(=O)c2ccc(CN3CCN(C)CC3)cc2)cc1Nc1nc(-c2cccnc2)cs1 [Masitinib] | < 0
9 | CCCN[C@H]1CCc2nc(N)sc2C1 [Pramipexole hydrochloride] | < 0
10 | CCCCCCCCCCCCCCCCCCCCCCO [Docosanol] | < 0
11 | C[C@@H]1CN(Cc2ccc(F)cc2)[C@@H](C)CN1C(=O)c1cc2c(C(=O)C(=O)N(C)C)cn(C)c2cc1Cl [Talmapimod] | < 0
12 | CO[C@@H]1[C@H](N(C)C(=O)c2ccccc2)C[C@H]2O[C@]1(C)n1c3ccccc3c3c4c(c5c6ccccc6n2c5c31)C(=O)NC4=O [Stauprimide] | 11.5
13 | O=C(C[C@@H]1C/C=C/CCC(=O)O[C@H](c2ccccc2)CNC1=O)NCc1ccc(Cl)cc1 [Robotnikinin] | < 0
14 | CC(C)(Oc1ccc(C2CC2(Cl)Cl)cc1)C(=O)O (stereo not given) [Ciprofibrate] | < 0
15 | CC(NCCc1ccc(O)cc1)C(O)c1ccc(O)cc1 (stereo not given) [Ritodrine hydrochloride] | < 0
16 | O=C1CSC(=O)N1C(CCc1ccncc1)COc1ccc(-c2cccc([N+](=O)[O-])c2)cc1 (stereo not given) | < 0
17 | CN(C)Cc1c(C(=O)NCCOc2ccc(C(=O)NO)cc2)oc2ccccc12 [Abexinostat] | 45.9
18 | CCCCN1CCC(CNC(=O)c2c3n(c4ccccc24)CCCO3)CC1 [Piboserod hydrochloride] | < 0
19 | CN1C2CCCC1CC(NC(=O)c1nn(C)c3ccccc13)C2 (stereo not given) [Granisetron hydrochloride] | < 0
20 | O=C(c1ccc(F)cc1)C1CCN(CCn2c(=O)[nH]c3ccccc3c2=O)CC1 [Ketanserin] | < 0

Row | SMILES | reduction in cell viability [%]
21 | NCc1c[nH]c(=S)n1[C@H]1CCc2c(F)cc(F)cc2C1 [Nepicastat hydrochloride] | < 0
22 | OCCC#Cc1nc(-c2ccc(F)cc2)c(-c2ccncc2)n1CCCc1ccccc1 | < 0
23 | CC(C)n1nc(-c2ccc3oc(N)nc3c2)c2c(N)ncnc21 | 64.1
24 | Nc1nnc(-c2cccc(Cl)c2Cl)c(N)n1 [Lamotrigine] | < 0
25 | Cn1cc(-c2cnn3c(N)c(Br)c([C@@H]4CCCNC4)nc23)cn1 | 34.6
26 | CC(C)(C)c1nc(-c2cccc(NS(=O)(=O)c3c(F)cccc3F)c2F)c(-c2ccnc(N)n2)s1 [Dabrafenib] | 49.6
27 | CCOc1ccn(-c2ccc(F)cc2)c(=O)c1C(=O)Nc1ccc(Oc2ccnc(N)c2Cl)c(F)c1 | < 0
28 | Cc1nc2cnc3ccc(C#Cc4cccnc4)cc3c2n1-c1ccc(C(C)(C)C#N)cc1 | 43
29 | O=C(O)[C@@H](c1ccc(OCc2ccc3ccccc3n2)cc1)C1CCCC1 [Veliflapon] | < 0
30 | NC(=O)c1ncn([C@@H]2O[C@H](CO)[C@@H](O)[C@H]2O)c1O [Mizoribine] | < 0
31 | COc1cc2nccc(Oc3ccc(NC(=O)Nc4ccc(F)cc4F)c(F)c3)c2cc1OC | < 0
32 | Cc1ccnc(NS(=O)(=O)c2ccc(NC(=O)Nc3ccc(S(=O)(=O)Nc4nccc(C)n4)cc3)cc2)n1 | < 0
33 | Cc1c(OCC(F)(F)F)ccnc1C[S+]([O-])c1nc2ccccc2[nH]1 (stereo not given) [Lansoprazole] | < 0
34 | C[C@H]1C[C@H]2[C@@H]3CCC4=CC(=O)C=C[C@]4(C)[C@H]3C(=O)C[C@]2(C)[C@@]1(O)C(=O)CO [Meprednisone] | < 0
35 | COc1ccc(-c2oc3cc(OC)ccc3c2C(=O)c2ccc(C#N)cc2)cc1 | < 0
36 | C[C@@H]1CCN(C(=O)CC#N)C[C@@H]1N(C)c1ncnc2[nH]ccc12 [Tofacitinib] | < 0
37 | c1coc(CNc2ncnc3[nH]cnc23)c1 [Kinetin] | < 0
38 | Nc1ncnc2c1ncn2[C@@H]1O[C@H](CO)C[C@H]1O [Cordycepin] | < 0
39 | CCN(CC)C(=S)SSC(=S)N(CC)CC [Disulfiram] | 89.6
40 | COc1ccc2nc3cc(Cl)ccc3c(Nc3cc(CN4CCCC4)c(O)c(CN4CCCC4)c3)c2n1 [Pyronaridine] | < 0

Test system: M238R (matched melanoma line resistant to BRAF inhibitors)
Test: as above
Conditions: 200 nM; 72 h

Row | SMILES | reduction in cell viability [%]
41 | COc1cc(/C=C/C(=O)O)ccc1O [Fumalic acid] | < 0
42 | CS(=O)(=O)OCCCCOS(C)(=O)=O [Busulfan] | < 0
43 | NCCS(=O)(=O)O [l-Taurine] | < 0
44 | CCN(CC)CCCCNc1nc2cc(Cl)c(Cl)cc2nc1-c1ccc(-c2cccs2)s1 | < 0
45 | CCc1cccc(CC)c1NC(=O)N1Cc2[nH]nc(NC(=O)c3ccc(N4CCN(C)CC4)cc3)c2C1 | < 0
46 | N#CC1(c2ccc(NC(=O)c3cccnc3NCc3ccncc3)cc2)CCCC1 [Apatinib] | < 0
47 | O=C(CCCN1CCC(O)(c2ccc(Cl)cc2)CC1)c1ccc(F)cc1 [Haloperidol] | < 0
48 | Cc1ccc(NC(=O)c2ccc(CN3CCN(C)CC3)cc2)cc1Nc1nc(-c2cccnc2)cs1 [Masitinib] | < 0
49 | CCCN[C@H]1CCc2nc(N)sc2C1 [Pramipexole hydrochloride] | < 0
50 | CCCCCCCCCCCCCCCCCCCCCCO [Docosanol] | < 0
51 | C[C@@H]1CN(Cc2ccc(F)cc2)[C@@H](C)CN1C(=O)c1cc2c(C(=O)C(=O)N(C)C)cn(C)c2cc1Cl [Talmapimod] | < 0
52 | CO[C@@H]1[C@H](N(C)C(=O)c2ccccc2)C[C@H]2O[C@]1(C)n1c3ccccc3c3c4c(c5c6ccccc6n2c5c31)C(=O)NC4=O [Stauprimide] | 16.8
53 | O=C(C[C@@H]1C/C=C/CCC(=O)O[C@H](c2ccccc2)CNC1=O)NCc1ccc(Cl)cc1 [Robotnikinin] | < 0
54 | CC(C)(Oc1ccc(C2CC2(Cl)Cl)cc1)C(=O)O (stereo not given) [Ciprofibrate] | < 0
55 | CC(NCCc1ccc(O)cc1)C(O)c1ccc(O)cc1 (stereo not given) [Ritodrine hydrochloride] | < 0
56 | O=C1CSC(=O)N1C(CCc1ccncc1)COc1ccc(-c2cccc([N+](=O)[O-])c2)cc1 (stereo not given) | < 0
57 | CN(C)Cc1c(C(=O)NCCOc2ccc(C(=O)NO)cc2)oc2ccccc12 [Abexinostat] | 19.6
58 | CCCCN1CCC(CNC(=O)c2c3n(c4ccccc24)CCCO3)CC1 [Piboserod hydrochloride] | < 0
59 | CN1C2CCCC1CC(NC(=O)c1nn(C)c3ccccc13)C2 (stereo not given) [Granisetron hydrochloride] | < 0
60 | O=C(c1ccc(F)cc1)C1CCN(CCn2c(=O)[nH]c3ccccc3c2=O)CC1 [Ketanserin] | < 0

Row | SMILES | reduction in cell viability [%]
61 | NCc1c[nH]c(=S)n1[C@H]1CCc2c(F)cc(F)cc2C1 [Nepicastat hydrochloride] | < 0
62 | OCCC#Cc1nc(-c2ccc(F)cc2)c(-c2ccncc2)n1CCCc1ccccc1 | < 0
63 | CC(C)n1nc(-c2ccc3oc(N)nc3c2)c2c(N)ncnc21 | 64
64 | Nc1nnc(-c2cccc(Cl)c2Cl)c(N)n1 [Lamotrigine] | < 0
65 | Cn1cc(-c2cnn3c(N)c(Br)c([C@@H]4CCCNC4)nc23)cn1 | 2.07
66 | CC(C)(C)c1nc(-c2cccc(NS(=O)(=O)c3c(F)cccc3F)c2F)c(-c2ccnc(N)n2)s1 [Dabrafenib] | < 0
67 | CCOc1ccn(-c2ccc(F)cc2)c(=O)c1C(=O)Nc1ccc(Oc2ccnc(N)c2Cl)c(F)c1 | < 0
68 | Cc1nc2cnc3ccc(C#Cc4cccnc4)cc3c2n1-c1ccc(C(C)(C)C#N)cc1 | 41.6
69 | O=C(O)[C@@H](c1ccc(OCc2ccc3ccccc3n2)cc1)C1CCCC1 [Veliflapon] | < 0
70 | NC(=O)c1ncn([C@@H]2O[C@H](CO)[C@@H](O)[C@H]2O)c1O [Mizoribine] | < 0
71 | COc1cc2nccc(Oc3ccc(NC(=O)Nc4ccc(F)cc4F)c(F)c3)c2cc1OC | < 0
72 | Cc1ccnc(NS(=O)(=O)c2ccc(NC(=O)Nc3ccc(S(=O)(=O)Nc4nccc(C)n4)cc3)cc2)n1 | < 0
73 | Cc1c(OCC(F)(F)F)ccnc1C[S+]([O-])c1nc2ccccc2[nH]1 (stereo not given) [Lansoprazole] | < 0
74 | C[C@H]1C[C@H]2[C@@H]3CCC4=CC(=O)C=C[C@]4(C)[C@H]3C(=O)C[C@]2(C)[C@@]1(O)C(=O)CO [Meprednisone] | < 0
75 | COc1ccc(-c2oc3cc(OC)ccc3c2C(=O)c2ccc(C#N)cc2)cc1 | < 0
76 | C[C@@H]1CCN(C(=O)CC#N)C[C@@H]1N(C)c1ncnc2[nH]ccc12 [Tofacitinib] | < 0
77 | c1coc(CNc2ncnc3[nH]cnc23)c1 [Kinetin] | < 0
78 | Nc1ncnc2c1ncn2[C@@H]1O[C@H](CO)C[C@H]1O [Cordycepin] | < 0
79 | CCN(CC)C(=S)SSC(=S)N(CC)CC [Disulfiram] | 71.2
80 | COc1ccc2nc3cc(Cl)ccc3c(Nc3cc(CN4CCCC4)c(O)c(CN4CCCC4)c3)c2n1 [Pyronaridine] | < 0

— the supplement of paper PMC9015667
